± gives the standard deviation of the averaged measurements. The list shows a part of the results, in another mix than the full data.
Compound: Nc1ncnc2c1ncn2[C@@H]1O[C@H](COP(=O)(O)OP(=O)(O)OP(=O)(O)O)[C@@H](O)[C@H]1O [adenosine triphosphate]
Assay: NP40-soluble protein abundance relative to vehicle (solubility fold change) (ratio); higher = more soluble protein in presence of ATP
Details: concentration: 6mM
Summary of the method: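 Values are fold changes against the detergent-processed vehicle, based on vsn-normalised intensities. Jurkat crude lysate was treated at eight concentrations from 0.1 to 10 mM (10 min at room temperature, then 3 min at 37 °C), solubilised with 0.8% NP40 and benzonase, ultracentrifuged and analysed by TMT-labelled LC-MS/MS over three independent experiments.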

The chains behind the UniProt entries cited, without tags or fusion partners. Where a name states a change or a piece, a line headed by the entry shows the natural chain unless it says otherwise.
UniProt Q9P0I2: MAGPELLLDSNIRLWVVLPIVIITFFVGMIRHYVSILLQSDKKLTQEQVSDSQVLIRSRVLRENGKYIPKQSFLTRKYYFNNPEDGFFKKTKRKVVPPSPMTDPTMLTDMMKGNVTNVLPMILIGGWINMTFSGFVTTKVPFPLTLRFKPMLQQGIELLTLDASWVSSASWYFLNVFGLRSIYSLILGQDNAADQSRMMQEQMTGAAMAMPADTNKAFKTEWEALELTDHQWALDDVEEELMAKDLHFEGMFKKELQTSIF
UniProt Q9NZC3: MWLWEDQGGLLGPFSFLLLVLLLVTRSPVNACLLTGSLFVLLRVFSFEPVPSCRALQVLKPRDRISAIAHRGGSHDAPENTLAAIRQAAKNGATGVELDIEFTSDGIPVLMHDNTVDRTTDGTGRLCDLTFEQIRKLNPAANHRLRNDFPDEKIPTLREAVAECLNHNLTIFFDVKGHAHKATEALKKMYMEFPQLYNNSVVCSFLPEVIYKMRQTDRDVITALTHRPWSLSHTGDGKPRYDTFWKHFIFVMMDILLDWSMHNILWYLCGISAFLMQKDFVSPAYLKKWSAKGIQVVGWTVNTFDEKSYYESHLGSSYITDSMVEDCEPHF
UniProt Q9P0R6: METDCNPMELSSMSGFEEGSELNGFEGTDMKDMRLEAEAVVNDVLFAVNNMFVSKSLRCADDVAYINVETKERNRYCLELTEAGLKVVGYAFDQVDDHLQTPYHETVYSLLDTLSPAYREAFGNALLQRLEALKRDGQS
UniProt Q9NWR8: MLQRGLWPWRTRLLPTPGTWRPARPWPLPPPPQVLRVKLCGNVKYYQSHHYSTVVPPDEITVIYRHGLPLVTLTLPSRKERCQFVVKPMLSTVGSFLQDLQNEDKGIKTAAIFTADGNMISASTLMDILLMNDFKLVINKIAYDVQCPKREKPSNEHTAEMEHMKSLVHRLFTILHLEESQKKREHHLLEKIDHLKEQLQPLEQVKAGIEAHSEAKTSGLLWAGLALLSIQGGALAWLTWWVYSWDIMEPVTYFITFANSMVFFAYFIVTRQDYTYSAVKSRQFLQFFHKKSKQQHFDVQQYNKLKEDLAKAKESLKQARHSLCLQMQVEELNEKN
UniProt Q9NR28: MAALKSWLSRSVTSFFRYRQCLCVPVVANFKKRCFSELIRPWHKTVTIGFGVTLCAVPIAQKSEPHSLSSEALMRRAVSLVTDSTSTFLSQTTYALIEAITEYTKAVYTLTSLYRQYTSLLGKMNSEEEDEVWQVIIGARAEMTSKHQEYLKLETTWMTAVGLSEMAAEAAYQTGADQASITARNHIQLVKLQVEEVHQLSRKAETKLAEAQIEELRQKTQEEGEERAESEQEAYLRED
UniProt Q9NYL9: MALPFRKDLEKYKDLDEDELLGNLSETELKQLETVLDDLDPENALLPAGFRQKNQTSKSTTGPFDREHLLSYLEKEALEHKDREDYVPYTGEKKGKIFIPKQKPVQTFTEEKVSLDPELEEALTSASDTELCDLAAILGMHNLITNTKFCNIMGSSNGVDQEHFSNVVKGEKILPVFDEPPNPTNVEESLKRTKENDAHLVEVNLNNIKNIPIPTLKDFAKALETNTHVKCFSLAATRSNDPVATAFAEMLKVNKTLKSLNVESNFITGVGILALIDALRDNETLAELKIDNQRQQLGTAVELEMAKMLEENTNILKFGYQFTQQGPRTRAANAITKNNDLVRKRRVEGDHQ
UniProt Q9NW81: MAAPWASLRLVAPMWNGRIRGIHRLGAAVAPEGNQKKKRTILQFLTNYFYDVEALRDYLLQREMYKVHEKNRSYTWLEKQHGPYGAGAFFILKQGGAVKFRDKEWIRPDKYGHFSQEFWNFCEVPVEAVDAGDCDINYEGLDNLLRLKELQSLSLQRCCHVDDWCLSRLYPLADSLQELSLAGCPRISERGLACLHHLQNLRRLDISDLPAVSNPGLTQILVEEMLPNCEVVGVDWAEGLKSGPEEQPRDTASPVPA
UniProt Q9NZC9: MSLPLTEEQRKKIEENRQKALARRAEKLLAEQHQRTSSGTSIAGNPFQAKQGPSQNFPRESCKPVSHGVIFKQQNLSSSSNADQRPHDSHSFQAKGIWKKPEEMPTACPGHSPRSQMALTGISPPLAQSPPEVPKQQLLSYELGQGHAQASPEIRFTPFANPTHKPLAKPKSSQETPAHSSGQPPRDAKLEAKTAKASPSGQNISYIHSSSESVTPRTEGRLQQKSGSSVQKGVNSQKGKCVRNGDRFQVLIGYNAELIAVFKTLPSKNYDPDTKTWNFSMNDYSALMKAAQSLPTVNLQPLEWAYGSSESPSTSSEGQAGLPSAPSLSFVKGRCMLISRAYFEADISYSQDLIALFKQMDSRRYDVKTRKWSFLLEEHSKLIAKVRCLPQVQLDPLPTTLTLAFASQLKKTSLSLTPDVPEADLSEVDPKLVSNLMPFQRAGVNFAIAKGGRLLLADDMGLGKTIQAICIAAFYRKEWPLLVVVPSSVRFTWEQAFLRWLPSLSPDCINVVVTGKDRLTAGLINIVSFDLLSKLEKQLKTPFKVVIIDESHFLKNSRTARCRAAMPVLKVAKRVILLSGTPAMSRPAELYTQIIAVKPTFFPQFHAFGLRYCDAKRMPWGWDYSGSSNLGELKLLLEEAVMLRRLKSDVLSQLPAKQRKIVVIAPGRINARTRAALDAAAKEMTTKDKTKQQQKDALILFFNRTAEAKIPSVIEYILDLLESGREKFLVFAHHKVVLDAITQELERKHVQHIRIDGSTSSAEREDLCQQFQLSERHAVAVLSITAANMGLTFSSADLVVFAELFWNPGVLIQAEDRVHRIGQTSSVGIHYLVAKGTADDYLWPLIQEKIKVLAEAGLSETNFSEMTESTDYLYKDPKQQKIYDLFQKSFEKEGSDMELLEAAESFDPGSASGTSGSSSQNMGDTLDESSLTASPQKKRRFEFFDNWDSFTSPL
UniProt Q9NR19, whole entry: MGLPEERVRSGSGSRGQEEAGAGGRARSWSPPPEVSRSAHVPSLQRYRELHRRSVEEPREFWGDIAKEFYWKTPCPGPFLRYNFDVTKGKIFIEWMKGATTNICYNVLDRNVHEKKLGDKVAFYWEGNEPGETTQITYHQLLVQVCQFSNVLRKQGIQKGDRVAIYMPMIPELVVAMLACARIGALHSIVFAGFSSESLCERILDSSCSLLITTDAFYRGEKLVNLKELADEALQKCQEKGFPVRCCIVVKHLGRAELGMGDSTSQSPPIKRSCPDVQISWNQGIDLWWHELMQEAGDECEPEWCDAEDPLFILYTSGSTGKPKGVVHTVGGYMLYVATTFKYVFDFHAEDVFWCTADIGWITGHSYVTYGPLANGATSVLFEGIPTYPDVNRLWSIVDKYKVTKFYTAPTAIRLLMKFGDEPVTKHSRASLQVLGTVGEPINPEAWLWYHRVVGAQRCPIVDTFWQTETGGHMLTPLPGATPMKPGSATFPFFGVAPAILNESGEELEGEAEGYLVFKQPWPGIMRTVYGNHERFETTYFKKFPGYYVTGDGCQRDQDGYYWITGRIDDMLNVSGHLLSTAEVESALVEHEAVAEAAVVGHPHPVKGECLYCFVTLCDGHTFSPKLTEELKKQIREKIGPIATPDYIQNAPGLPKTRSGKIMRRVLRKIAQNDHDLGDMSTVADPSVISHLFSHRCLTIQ
UniProt Q9NWV4: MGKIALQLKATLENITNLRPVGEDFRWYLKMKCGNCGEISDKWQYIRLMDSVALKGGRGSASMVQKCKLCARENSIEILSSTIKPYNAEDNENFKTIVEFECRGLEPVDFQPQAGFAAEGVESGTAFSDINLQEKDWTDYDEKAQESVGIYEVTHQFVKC
UniProt Q9NS87: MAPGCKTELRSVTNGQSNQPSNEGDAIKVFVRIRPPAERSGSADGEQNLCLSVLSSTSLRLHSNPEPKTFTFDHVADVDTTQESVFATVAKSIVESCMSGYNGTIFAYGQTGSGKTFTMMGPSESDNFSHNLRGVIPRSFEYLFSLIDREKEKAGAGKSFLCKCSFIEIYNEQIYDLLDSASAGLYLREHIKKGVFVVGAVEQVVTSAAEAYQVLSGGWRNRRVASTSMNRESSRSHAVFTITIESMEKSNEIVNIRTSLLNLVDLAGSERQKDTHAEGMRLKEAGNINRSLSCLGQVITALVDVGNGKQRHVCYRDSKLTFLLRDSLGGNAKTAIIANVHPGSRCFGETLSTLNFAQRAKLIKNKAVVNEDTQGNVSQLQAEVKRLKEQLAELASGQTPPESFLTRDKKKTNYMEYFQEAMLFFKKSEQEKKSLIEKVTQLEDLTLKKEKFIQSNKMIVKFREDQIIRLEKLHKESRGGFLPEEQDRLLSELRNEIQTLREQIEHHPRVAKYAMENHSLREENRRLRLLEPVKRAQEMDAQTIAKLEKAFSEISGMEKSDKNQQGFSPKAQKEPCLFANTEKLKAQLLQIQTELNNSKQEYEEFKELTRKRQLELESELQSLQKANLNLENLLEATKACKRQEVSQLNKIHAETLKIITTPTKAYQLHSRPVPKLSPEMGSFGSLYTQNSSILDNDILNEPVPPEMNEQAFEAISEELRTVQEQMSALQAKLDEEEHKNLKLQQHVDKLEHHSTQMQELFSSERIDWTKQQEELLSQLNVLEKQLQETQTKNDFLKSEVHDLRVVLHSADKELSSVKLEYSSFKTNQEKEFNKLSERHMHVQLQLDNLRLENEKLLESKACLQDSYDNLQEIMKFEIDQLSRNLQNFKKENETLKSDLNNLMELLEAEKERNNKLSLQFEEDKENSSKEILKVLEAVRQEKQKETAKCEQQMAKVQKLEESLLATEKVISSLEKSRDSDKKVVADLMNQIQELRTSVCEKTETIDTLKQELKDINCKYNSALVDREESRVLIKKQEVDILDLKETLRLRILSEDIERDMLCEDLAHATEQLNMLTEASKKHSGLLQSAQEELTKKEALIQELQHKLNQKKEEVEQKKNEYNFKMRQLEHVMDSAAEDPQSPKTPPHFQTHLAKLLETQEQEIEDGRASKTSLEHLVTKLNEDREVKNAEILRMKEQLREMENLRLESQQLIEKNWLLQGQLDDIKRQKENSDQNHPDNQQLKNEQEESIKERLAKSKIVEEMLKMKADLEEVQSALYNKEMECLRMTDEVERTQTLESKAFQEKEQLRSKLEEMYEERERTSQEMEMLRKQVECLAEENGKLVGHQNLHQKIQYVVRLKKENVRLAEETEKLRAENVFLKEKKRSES
UniProt Q9NUB1: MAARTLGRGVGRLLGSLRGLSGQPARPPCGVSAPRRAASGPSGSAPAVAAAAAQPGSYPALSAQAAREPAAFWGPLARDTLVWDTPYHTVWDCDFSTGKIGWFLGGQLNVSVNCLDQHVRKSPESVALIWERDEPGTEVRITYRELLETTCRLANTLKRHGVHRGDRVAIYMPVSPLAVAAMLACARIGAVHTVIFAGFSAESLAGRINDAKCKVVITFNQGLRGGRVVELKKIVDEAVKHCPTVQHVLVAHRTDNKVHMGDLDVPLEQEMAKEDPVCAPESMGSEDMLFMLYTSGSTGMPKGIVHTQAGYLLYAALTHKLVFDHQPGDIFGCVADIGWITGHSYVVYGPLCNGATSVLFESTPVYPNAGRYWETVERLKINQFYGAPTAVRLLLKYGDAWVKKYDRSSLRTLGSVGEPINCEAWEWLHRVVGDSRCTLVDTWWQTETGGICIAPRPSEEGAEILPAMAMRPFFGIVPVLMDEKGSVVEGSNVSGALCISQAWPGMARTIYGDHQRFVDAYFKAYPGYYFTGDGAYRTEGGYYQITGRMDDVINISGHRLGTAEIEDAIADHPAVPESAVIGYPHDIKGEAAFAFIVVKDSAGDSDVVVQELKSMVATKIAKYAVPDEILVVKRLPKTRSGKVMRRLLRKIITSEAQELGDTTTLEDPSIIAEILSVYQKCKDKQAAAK
UniProt Q9NVE7: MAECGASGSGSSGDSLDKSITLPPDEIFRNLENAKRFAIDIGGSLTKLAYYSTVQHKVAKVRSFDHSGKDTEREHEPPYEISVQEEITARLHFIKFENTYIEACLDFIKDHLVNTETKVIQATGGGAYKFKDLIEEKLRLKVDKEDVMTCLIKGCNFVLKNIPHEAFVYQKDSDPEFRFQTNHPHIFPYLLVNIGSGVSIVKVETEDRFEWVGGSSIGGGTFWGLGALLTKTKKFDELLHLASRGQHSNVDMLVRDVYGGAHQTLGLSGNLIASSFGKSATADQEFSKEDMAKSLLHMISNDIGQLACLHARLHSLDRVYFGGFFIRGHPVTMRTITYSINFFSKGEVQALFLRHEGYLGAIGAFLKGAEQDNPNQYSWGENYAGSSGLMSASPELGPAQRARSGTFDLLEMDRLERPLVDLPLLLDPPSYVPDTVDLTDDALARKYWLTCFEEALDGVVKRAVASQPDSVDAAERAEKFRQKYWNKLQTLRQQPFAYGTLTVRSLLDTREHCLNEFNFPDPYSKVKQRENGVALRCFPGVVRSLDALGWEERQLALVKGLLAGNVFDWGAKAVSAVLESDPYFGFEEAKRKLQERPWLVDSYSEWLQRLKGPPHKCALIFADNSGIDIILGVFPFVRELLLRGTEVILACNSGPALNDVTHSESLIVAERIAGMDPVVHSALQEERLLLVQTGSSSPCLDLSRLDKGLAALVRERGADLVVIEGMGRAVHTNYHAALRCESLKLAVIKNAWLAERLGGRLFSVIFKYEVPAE

Target	NP40-soluble protein abundance
UniProt Q9P0I2	1.07 ± 0.1
UniProt Q9NZC3 and related entries	0.926 ± 0.055
GSKIP (UniProt Q9P0R6)	0.943 ± 0.065
UniProt Q9NWR8	0.9713 ± 0.0057
UniProt Q9NR28 and related entries	0.866 ± 0.07
TMOD3 (UniProt Q9NYL9)	1.03 ± 0.064
UniProt Q9NW81 and related entries	1.03 ± 0.06

Same assay, conditions: concentration: 8mM

Target	NP40-soluble protein abundance
IMPAD1 (UniProt Q9NX62)	0.919 ± 0.029
UniProt Q9P0K8 and related entries	0.856 ± 0.098
SMARCAL1 (UniProt Q9NZC9)	1.03 ± 0.049
PAK1IP1 (UniProt Q9NWT1)	1.37 ± 0.053
RNF181 (UniProt Q9P0P0)	0.949 ± 0.038
UniProt Q9NR19 and related entries	0.943 ± 0.091
UniProt Q9NWV4	0.942 ± 0.03
NANS (UniProt Q9NR45)	0.982 ± 0.04
KIF15 (UniProt Q9NS87)	0.961 ± 0.038
MED11 (UniProt Q9P086)	1.02 ± 0.14
CTNNBIP1 (UniProt Q9NSA3)	0.865 ± 0.03
TBC1D22B (UniProt Q9NU19)	0.984 ± 0.023
UniProt Q9NUQ3	0.933 ± 0.013
HOMER3 (UniProt Q9NSC5)	1.08 ± 0.012
EIF2B3 (UniProt Q9NR50)	1.02 ± 0.022
NSMCE4A (UniProt Q9NXX6)	1.03 ± 0.031
RBM28 (UniProt Q9NW13)	1.21 ± 0.025
KIF13B (UniProt Q9NQT8)	1.01 ± 0.016

Target	NP40-soluble protein abundance
PFDN4 (UniProt Q9NQP4)	0.835 ± 0.048
UniProt Q9NUB1 and related entries	1.01 ± 0.069
MTPAP (UniProt Q9NVV4)	1.53 ± 0.018
TM7SF3 (UniProt Q9NS93)	0.934 ± 0.036
PANK4 (UniProt Q9NVE7)	1.03 ± 0.1
PAG1 (UniProt Q9NWQ8)	0.929 ± 0.085
UniProt Q9NUP1	0.949 ± 0.02
STARD7 (UniProt Q9NQZ5)	0.92 ± 0.033
UniProt Q9NVM4 and related entries	1.03 ± 0.062
UniProt Q9NW08 and related entries	1.1 ± 0.042
CHST12 (UniProt Q9NRB3)	0.901 ± 0.023
UniProt Q9P0I2	1.02 ± 0.066
UniProt Q9NZC3 and related entries	0.897 ± 0.018
GSKIP (UniProt Q9P0R6)	0.857 ± 0.035
UniProt Q9NWR8	1.06 ± 0.035
UniProt Q9NR28 and related entries	0.887 ± 0.066
TMOD3 (UniProt Q9NYL9)	1.01 ± 0.033
UniProt Q9NW81 and related entries	1.04 ± 0.017

Same assay, conditions: concentration: 10mM

Target	NP40-soluble protein abundance
IMPAD1 (UniProt Q9NX62)	0.925 ± 0.011
UniProt Q9P0K8 and related entries	0.842 ± 0.088
SMARCAL1 (UniProt Q9NZC9)	1.09 ± 0.02
PAK1IP1 (UniProt Q9NWT1)	1.58 ± 0.071
RNF181 (UniProt Q9P0P0)	0.915 ± 0.057
UniProt Q9NR19 and related entries	0.917 ± 0.031
UniProt Q9NWV4	0.933 ± 0.036
NANS (UniProt Q9NR45)	0.947 ± 0.054
KIF15 (UniProt Q9NS87)	0.966 ± 0.055
MED11 (UniProt Q9P086)	1 ± 0.14
CTNNBIP1 (UniProt Q9NSA3)	0.879 ± 0.085
TBC1D22B (UniProt Q9NU19)	1.02 ± 0.053
UniProt Q9NUQ3	0.93 ± 0.034
HOMER3 (UniProt Q9NSC5)	1.12 ± 0.021
EIF2B3 (UniProt Q9NR50)	0.991 ± 0.018
NSMCE4A (UniProt Q9NXX6)	1.03 ± 0.06
RBM28 (UniProt Q9NW13)	1.3 ± 0.023
KIF13B (UniProt Q9NQT8)	1.01 ± 0.029

Target	NP40-soluble protein abundance
PFDN4 (UniProt Q9NQP4)	0.86 ± 0.14
UniProt Q9NUB1 and related entries	0.989 ± 0.081
MTPAP (UniProt Q9NVV4)	1.57 ± 0.091
TM7SF3 (UniProt Q9NS93)	0.924 ± 0.056
PANK4 (UniProt Q9NVE7)	0.995 ± 0.034
PAG1 (UniProt Q9NWQ8)	0.929 ± 0.11
UniProt Q9NUP1	0.859 ± 0.086
STARD7 (UniProt Q9NQZ5)	0.949 ± 0.035
UniProt Q9NVM4 and related entries	1 ± 0.054
UniProt Q9NW08 and related entries	1.06 ± 0.043
CHST12 (UniProt Q9NRB3)	0.917 ± 0.1
UniProt Q9P0I2	1.01 ± 0.037
UniProt Q9NZC3 and related entries	0.909 ± 0.041
GSKIP (UniProt Q9P0R6)	0.842 ± 0.16
UniProt Q9NWR8	1.04 ± 0.094
UniProt Q9NR28 and related entries	0.838 ± 0.077
TMOD3 (UniProt Q9NYL9)	0.963 ± 0.035
UniProt Q9NW81 and related entries	1.06 ± 0.059

Reference: the supplement of paper PMC6411743
